Measured values: the supplement of paper PMC3334620
Whole data set: some 33,000 sequences, median “E-score (-0.5 to 0.5)” near -0.0034, cut for the highest 2% near 0.25. The list shows a part of the results.

biological target: T1, Yap3 (UniProt P38749); assay: PBM E-score (8-mer binding enrichment) (E-score (-0.5 to 0.5)); higher = stronger / more preferred TF binding; details: protein concentration: 100 nM; construct: GST-full length
T1 sequence: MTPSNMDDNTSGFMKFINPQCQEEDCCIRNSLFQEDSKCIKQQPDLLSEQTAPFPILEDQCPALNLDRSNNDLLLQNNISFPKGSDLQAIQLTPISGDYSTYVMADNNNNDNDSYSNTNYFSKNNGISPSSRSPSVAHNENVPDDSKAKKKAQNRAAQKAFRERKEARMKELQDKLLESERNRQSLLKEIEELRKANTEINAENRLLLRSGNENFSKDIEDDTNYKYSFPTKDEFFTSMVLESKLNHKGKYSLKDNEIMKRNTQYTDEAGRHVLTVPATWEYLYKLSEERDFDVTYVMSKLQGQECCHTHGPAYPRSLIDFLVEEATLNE
Method in brief: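 Using PURExpress in vitro transcription/translation, GST-tagged yeast transcription factors were made in full-length or DNA-binding-domain form. These were applied at about 100-200 nM to double-stranded universal all-10-mer Agilent arrays, and bound protein was detected with fluorescent anti-GST. Scans were normalised with masliner before the Universal PBM Analysis Suite assigned E-scores to ungapped eight-base words pooled with their reverse complements.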

Row | Sequence | PBM E-score
1 | AGGTACGA | 0.00509
2 | GATGAATA | 0.242
3 | GAAGCCAC | -0.0421
4 | AAACAGCT | -0.0097
5 | GAAGCAGA | 0.0457
6 | AGATGATA | 0.08
7 | AACCTAAA | 0.142
8 | ACCGGCAG | -0.277
9 | AACGACTC | -0.118
10 | CAGCGCGC | 0.1
11 | GCTACACA | -0.0739
12 | CTGGAAAC | 0.0292
13 | AATGAATC | 0.028
14 | CATGAGTC | 0.179
15 | TAGAGCCA | -0.172
16 | CATTTTTA | -0.0137
17 | AGCTGCTA | -0.0365
18 | CACTAATC | 0.175
19 | GCTACGAC | -0.0678
20 | CACTTCTG | -0.129
21 | ATCGTTCG | 0.136
22 | GAGCCCTA | -0.173
23 | CGTATACA | 0.0282
24 | CACGAATC | 0.0458
25 | CCGAGTGC | -0.0436

Row | Sequence | PBM E-score
26 | CCCTTACA | 0.0323
27 | CATGTTCA | 0.11
28 | AATCCTGA | 0.0232
29 | CATCCATC | -0.12
30 | GCGTCGAC | 0.0911
31 | GTTCTTGA | -0.0293
32 | GCCCGTCA | -0.299
33 | GGAAAACC | -0.11
34 | CTACATTC | -0.0249
35 | TGCTTTAA | 0.153
36 | GCGGCCCA | -0.246
37 | GACGTTCA | -0.0915
38 | CTATTCCC | 0.03
39 | ATTGGGAA | 0.114
40 | ACGTACGC | -0.0347
41 | CAAGCATC | -0.0915
42 | ATCTGGTA | -0.00323
43 | GTAAGTTA | 0.152
44 | AGACCTCC | -0.407
45 | CTCGTCTC | 0.0205
46 | CGTTATTA | 0.183
47 | ACAAGGAC | -0.0164
48 | AGGGAATA | 0.15
49 | TATATATA | 0.304
50 | ATGCATGG | 0.0626

Row | Sequence | PBM E-score
51 | CATGGGGA | -0.102
52 | ATTCCAGA | 0.101
53 | GATGTCAA | -0.0125
54 | TATCCGCA | 0.236
55 | GAGAATCA | -0.113
56 | AGAACAGA | 0.0919
57 | CTTTTGAC | 0.00804
58 | TGGAAAAA | 0.206
59 | CGACCAAG | -0.15
60 | AGTACTAG | 0.0792
61 | AGTGCGGG | -0.084
62 | CATGCTCC | -0.141
63 | CTCTTCAG | -0.088
64 | CCGACATC | -0.0784
65 | AGGCGCTG | 0.0232
66 | ATGTTCAC | -0.0242
67 | CGTTTGTA | 0.16
68 | GCCGTTTA | 0.0344
69 | CCTACGGA | -0.232
70 | GAAGTGGC | -0.0936
71 | GGGCGACC | -0.247
72 | GCGGAACA | -0.105
73 | CGATATAG | 0.126
74 | CACGTCTG | 0.0742
75 | CAGCTAGG | -0.14

Retrieved one by one from above:
Row | Sequence | PBM E-score
55 | GAGAATCA | -0.113
62 | CATGCTCC | -0.141
63 | CTCTTCAG | -0.088
56 | AGAACAGA | 0.0919
53 | GATGTCAA | -0.0125

(cont.)

Row | Sequence | PBM E-score
76 | ACGTCACA | 0.0829
77 | CGGTGAAC | 0.0707
78 | CAACTGCA | -0.0467
79 | AAATACAC | 0.242
80 | AACCTTGC | 0.00598
81 | CTTTCAAC | 0.19
82 | CCTCAGGC | -0.249
83 | CGATAAAA | 0.195
84 | ACCCTTAC | 0.0235
85 | AAGACCGG | -0.124
86 | ACATATGA | 0.102
87 | GTCGTCCA | -0.0463
88 | CGGACTCC | -0.125
89 | AGGGTTAG | -0.125
90 | AATGGGAC | -0.121
91 | CACGATCG | 0.056
92 | CAACATAA | 0.297
93 | CAAATCGG | -0.0566
94 | CAGGTGCA | -0.0752
95 | GTGAGCAC | -0.173
96 | ACCCGTCA | -0.162
97 | AGTGCAAA | 0.225
98 | CTTTGTTA | 0.184
99 | CACGCTCG | -0.0517
100 | AGCGCCCC | -0.384

Row | Sequence | PBM E-score
101 | CTTGAGGA | -0.0886
102 | CGGGACCC | -0.398
103 | ATTATGAC | 0.14
104 | GAGGTAAC | 0.0442
105 | CCGCCATC | -0.21
106 | TATCTACA | 0.195
107 | ACAAGAAC | 0.216
108 | CAGCACAA | 0.0241
109 | GTTGATTA | 0.168
110 | CTAATCAG | 0.0826
111 | ACGGGGCT | -0.178
112 | CCTCGCCC | -0.0977
113 | CCGCATTC | 0.0142
114 | ACCACTCA | -0.0995
115 | ATGTGAGA | 0.124
116 | CGTGGCTC | -0.321
117 | CAACCCTA | 0.00408
118 | ATAGTCGC | 0.00598
119 | ATCATTAC | 0.243
120 | ATTACTCG | 0.23
121 | ATACTGTG | 0.0254
122 | CTTCTATC | -0.0246
123 | CCGGCCTA | -0.12
124 | AAGCCAGC | -0.0187
125 | CATCCTCC | -0.153

Row | Sequence | PBM E-score
126 | GTAGCTTA | 0.214
127 | AATGGCTG | 2e-05
128 | AGAACTTG | 0.134
129 | CGCGGCCA | -0.088
130 | GAGTAAGC | -0.0395
131 | CGTACATC | 0.0265
132 | ATGAGGGG | 0.0122
133 | ATACTCAC | 0.0225
134 | CCACAGCG | -0.016
135 | GCCCGCCA | -0.26
136 | GGCGTCAA | 0.0807
137 | ATTTTGTG | 0.157
138 | ACCCGCAT | 0.0749
139 | CAGCTTAG | -0.00249
140 | ATTTGCAC | 0.167
141 | ATTGCTTA | 0.102
142 | ACCAGAAT | 0.0458
143 | CTGTCGCA | 0.0096
144 | ATAACGGC | 0.107
145 | CATAAACG | 0.176
146 | ACACATCG | -0.0593
147 | GGTGCTAC | -0.074
148 | AGCGGACC | -0.135
149 | CCGGATTA | 0.168
150 | GATTAGAC | 0.0157

Row | Sequence | PBM E-score
151 | GCACATGC | 0.0239
152 | AGATACAA | 0.157
153 | GGGTCAGA | -0.342
154 | CTCTACAA | 0.0523
155 | AACCGCAC | -0.0316
156 | ACAGCGGA | 0.0373
157 | AAGCGGGA | -0.0138
158 | CCAACTGC | -0.103
159 | CACCGAGA | -0.00758
160 | ACATGAAG | 0.0149
161 | CGCCCCAG | -0.219
162 | CCTTGATC | -0.161
163 | TTATATAA | 0.418
164 | AGCGGCGG | -0.0834
165 | AGCATATA | 0.0558
166 | GAGCATGC | -0.115
167 | CACAATGG | 0.162
168 | CATCATTA | 0.232
169 | AAGTTAAT | 0.0825
170 | ACGAGAAA | 0.0781
171 | AAATTGTC | 0.154
172 | AAGTCCCG | -0.1
